Measured values from PMC9975939.
No constants are given. Whether binding was seen depends on the method and setting. In cells and extracts the contact can be indirect.

Protein sequences, listed by entry. Tags and fused reporters are not part of them.
UniProt Q96CV9: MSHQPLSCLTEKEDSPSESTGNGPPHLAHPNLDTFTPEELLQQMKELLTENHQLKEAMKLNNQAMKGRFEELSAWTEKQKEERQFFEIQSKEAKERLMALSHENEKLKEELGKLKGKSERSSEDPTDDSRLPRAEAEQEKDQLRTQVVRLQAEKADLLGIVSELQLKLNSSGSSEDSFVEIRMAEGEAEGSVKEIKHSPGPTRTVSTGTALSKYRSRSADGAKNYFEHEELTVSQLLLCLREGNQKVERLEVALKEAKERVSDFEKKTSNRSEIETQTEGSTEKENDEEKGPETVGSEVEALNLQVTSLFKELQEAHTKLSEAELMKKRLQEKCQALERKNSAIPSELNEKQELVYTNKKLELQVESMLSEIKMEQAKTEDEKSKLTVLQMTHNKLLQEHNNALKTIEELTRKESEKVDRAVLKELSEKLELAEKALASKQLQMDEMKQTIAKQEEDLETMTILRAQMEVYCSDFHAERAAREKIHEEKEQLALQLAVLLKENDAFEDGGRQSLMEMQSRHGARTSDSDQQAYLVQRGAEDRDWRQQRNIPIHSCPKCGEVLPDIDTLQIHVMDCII

Target: OPTN (human (endogenous in HeLa)) (UniProt Q96CV9)
Experiment: condition: only AO/bafilomycin A1 treatment (4 μM/10 μM AO, 400 nM Baf, 3 h); cross-linking; DLC in HeLa cells treated with 4 μM/10 μM AO with or without 400 nM Baf for 3 h; non-reducing SDS-PAGE, immunoblot for OPTN

Question: How did the binding turn out when OPTN (from UniProt Q96CV9 1-577) was run?
Answer: no binding
